# According to the supplement of paper PMC8728848:
# The list shows a part of the results.
# B1: Nc3LysM-2 (protein)
# chain: AHVLQARQSVSCDFATAANTGDTCASFAAAWGITEAAFAKLNPGVSCPGNLIAGSEYCVIGTVSTGAPTTTKAATTSTTPPTTTTTTKATTLSTSTTSVSPTGPSPQMPSITSTCNKFYQVQSGDGCWSIEQAQGVSASDFMAWNKAVDAQCDNLWLGYYVCVGVKGGSSPPPTTTTKPASSSAPTPQMPNTVSNCKKFHKVVSGDGCWAIEQAAGISASDFAKWNPYVDAACDNLWLGYYVCIGV
# Legend:
# Assay in all cases: glycan array binding signal (z-score within array); higher = stronger binding
# Settings in all cases: glycan notation: IUPAC condensed, linker removed
# [1] = target: Neu5Ac(a2-6)Gal(b1-4)GlcNAc(b1-6)GalNAc
# Method in brief: (§1)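 The Consortium for Functional Glycomics database supplied 3228 glycan arrays, of which those lacking an available protein sequence were dropped. The binding signal, a within-array Z-score, was averaged across arrays of the same protein sequence and across linkers. Negative scores can be read as non-binding.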
# [2] = target: Neu5Ac(a2-6)Gal(b1-4)GlcNAc(b1-6)[Gal(b1-3)GlcNAc(b1-3)]Gal(b1-4)Glc
# Method in brief: as §1
# [3] = target: Neu5Ac(a2-6)Gal(b1-4)GlcNAc(b1-6)[Gal(b1-3)]GalNAc
# Method in brief: as §1
# [4] = target: Neu5Ac(a2-6)Gal(b1-4)GlcNAc6S
# Method in brief: as §1
# Neu5Ac(a2-6)GalNAc = target: Neu5Ac(a2-6)GalNAc
# Method in brief: as §1
# [5] = target: Neu5Ac(a2-6)GalNAc(b1-4)GlcNAc
# Method in brief: as §1
# [6] = target: Neu5Ac(a2-6)GalNAc(b1-4)GlcNAc6S
# Method in brief: as §1
# [7] = target: Neu5Ac(a2-6)GlcNAc(b1-4)GlcNAc
# Method in brief: as §1
# [8] = target: Neu5Ac(a2-6)GlcNAc(b1-4)GlcNAc(b1-4)GlcNAc
# Method in brief: as §1
# Neu5Ac(a2-8)Neu5Ac = target: Neu5Ac(a2-8)Neu5Ac
# Method in brief: as §1
# [9] = target: Neu5Ac(a2-8)Neu5Ac(a2-3)Gal(b1-3)GalNAc(b1-4)[Neu5Ac(a2-3)]Gal(b1-4)Glc
# Method in brief: as §1
# [10] = target: Neu5Ac(a2-8)Neu5Ac(a2-3)Gal(b1-3)GalNAc(b1-4)[Neu5Ac(a2-8)Neu5Ac(a2-3)]Gal(b1-4)Glc
# Method in brief: as §1
# [11] = target: Neu5Ac(a2-8)Neu5Ac(a2-3)Gal(b1-4)Glc
# Method in brief: as §1
# [12] = target: Neu5Ac(a2-8)Neu5Ac(a2-3)Gal(b1-4)GlcNAc
# Method in brief: as §1
# [13] = target: Neu5Ac(a2-8)Neu5Ac(a2-3)[Gal(b1-3)GalNAc(b1-4)]Gal(b1-4)Glc
# Method in brief: as §1
# [14] = target: Neu5Ac(a2-8)Neu5Ac(a2-3)[GalNAc(b1-4)]Gal(b1-4)Glc
# Method in brief: as §1
# [15] = target: Neu5Ac(a2-8)Neu5Ac(a2-8)Neu5Ac
# Method in brief: as §1
# [16] = target: Neu5Ac(a2-8)Neu5Ac(a2-8)Neu5Ac(a2-3)Gal(b1-4)Glc
# Method in brief: as §1
# [17] = target: Neu5Ac(a2-8)Neu5Ac(a2-8)Neu5Ac(a2-3)[Gal(b1-3)GalNAc(b1-4)]Gal(b1-4)Glc
# Method in brief: as §1
# [18] = target: Neu5Ac(a2-8)Neu5Ac(a2-8)Neu5Ac(a2-3)[GalNAc(b1-4)]Gal(b1-4)Glc
# Method in brief: as §1
# [19] = target: Neu5Ac(a2-8)Neu5Ac(a2-8)Neu5Ac(a2-8)Neu5Ac(a2-3)[GalNAc(b1-4)]Gal(b1-4)Glc
# Method in brief: as §1
# [20] = target: Neu5Ac(a2-8)Neu5Gc(a2-3)Gal(b1-4)GlcNAc
# Method in brief: as §1
# [21] = target: Neu5Ac(b2-6)Gal(b1-4)GlcNAc
# Method in brief: as §1
# Neu5Ac(b2-6)GalNAc = target: Neu5Ac(b2-6)GalNAc
# Method in brief: as §1
# [22] = target: Neu5Ac9Ac(a2-3)Gal(b1-3)GlcNAc
# Method in brief: as §1
# [23] = target: Neu5Ac9Ac(a2-3)Gal(b1-4)GlcNAc
# Method in brief: as §1
# [24] = target: Neu5Ac9Ac(a2-6)Gal(b1-4)GlcNAc
# Method in brief: as §1
# [25] = target: Neu5Gc(a2-3)Gal(b1-3)GlcNAc
# Method in brief: as §1
# [26] = target: Neu5Gc(a2-3)Gal(b1-3)[Fuc(a1-4)]GlcNAc
# Method in brief: as §1
# Neu5Gc(a2-3)Gal(b1-4)Glc = target: Neu5Gc(a2-3)Gal(b1-4)Glc
# Method in brief: as §1
# [27] = target: Neu5Gc(a2-3)Gal(b1-4)GlcNAc
# Method in brief: as §1
# [28] = target: Neu5Gc(a2-3)Gal(b1-4)GlcNAc(b1-3)Gal(b1-4)GlcNAc(b1-2)Man(a1-3)[Neu5Gc(a2-3)Gal(b1-4)GlcNAc(b1-3)Gal(b1-4)GlcNAc(b1-2)Man(a1-6)]Man(b1-4)GlcNAc(b1-4)GlcNAc
# Method in brief: as §1
# [29] = target: Neu5Gc(a2-3)Gal(b1-4)[Fuc(a1-3)]GlcNAc
# Method in brief: as §1
# [30] = target: Neu5Gc(a2-6)Gal(b1-4)GlcNAc
# Method in brief: as §1
# Neu5Gc(a2-6)GalNAc = target: Neu5Gc(a2-6)GalNAc
# Method in brief: as §1
# [31] = target: Neu5Gc(a2-8)Neu5Ac(a2-3)Gal(b1-4)GlcNAc
# Method in brief: as §1
# [32] = target: Neu5Gc(a2-8)Neu5Gc(a2-3)Gal(b1-4)GlcNAc
# Method in brief: as §1
# [33] = target: Neu5Gc(a2-8)Neu5Gc(a2-3)Gal(b1-4)GlcNAc(b1-3)Gal(b1-4)GlcNAc
# Method in brief: as §1
binder,measurement,setting,value
B1,glycan array binding signal (z-score),[1],-1.09
same,glycan array binding signal (z-score),[2],0.831
same,glycan array binding signal (z-score),[3],0.392
same,glycan array binding signal (z-score),[4],-0.272
same,glycan array binding signal (z-score),Neu5Ac(a2-6)GalNAc,-0.255
same,glycan array binding signal (z-score),[5],-1.14
same,glycan array binding signal (z-score),[6],-2.04
same,glycan array binding signal (z-score),[7],-0.544
same,glycan array binding signal (z-score),[8],-0.866
same,glycan array binding signal (z-score),Neu5Ac(a2-8)Neu5Ac,0.764
same,glycan array binding signal (z-score),[9],1.77
same,glycan array binding signal (z-score),[10],-0.682
same,glycan array binding signal (z-score),[11],0.832
same,glycan array binding signal (z-score),[12],0.005
same,glycan array binding signal (z-score),[13],-1.03
same,glycan array binding signal (z-score),[14],0.76
same,glycan array binding signal (z-score),[15],0.614
same,glycan array binding signal (z-score),[16],-1.22
same,glycan array binding signal (z-score),[17],-0.618
same,glycan array binding signal (z-score),[18],-1.15
same,glycan array binding signal (z-score),[19],0.938
same,glycan array binding signal (z-score),[20],-0.798
same,glycan array binding signal (z-score),[21],-1.26
same,glycan array binding signal (z-score),Neu5Ac(b2-6)GalNAc,0.072
same,glycan array binding signal (z-score),[22],-0.468
same,glycan array binding signal (z-score),[23],1.2
same,glycan array binding signal (z-score),[24],-0.103
same,glycan array binding signal (z-score),[25],0.959
same,glycan array binding signal (z-score),[26],-1.09
same,glycan array binding signal (z-score),Neu5Gc(a2-3)Gal(b1-4)Glc,-0.858
same,glycan array binding signal (z-score),[27],-0.122
same,glycan array binding signal (z-score),[28],-0.459
same,glycan array binding signal (z-score),[29],1.35
same,glycan array binding signal (z-score),[30],-1.12
same,glycan array binding signal (z-score),Neu5Gc(a2-6)GalNAc,0.729
same,glycan array binding signal (z-score),[31],-1.04
same,glycan array binding signal (z-score),[32],-0.807
same,glycan array binding signal (z-score),[33],0.232

# Reprinted at random: 2 records from the list, in no set order.
binder,measurement,setting,value
B1,glycan array binding signal (z-score),[32],-0.807
same,glycan array binding signal (z-score),Neu5Gc(a2-3)Gal(b1-4)Glc,-0.858
